Reference: publication PMC5563082
These are yes or no findings as the source states them, for the method shown.

Target: human MDGA1 extracellular domain (MDGA1_(ECTO); Gln19-Lys925) (human) (UniProt Q8NFP4)
Experiment: AUC; sedimentation velocity, human MDGA1_(ECTO) at 60 μM (6.31 g/L) in TBS-CT, 293 K, 40,000 rpm; both purified

- binding: no binding (tested: 60 μM)
B1: human MDGA1 extracellular domain (MDGA1_(ECTO); Gln19-Lys925) (domain or fragment, UniProt Q8NFP4-1 19-925)
chain: QGVYAPAQAQIVHAGQACVVKEDNISERVYTIREGDTLMLQCLVTGHPRPQVRWTKTAGSASDKFQETSVFNETLRIERIARTQGGRYYCKAENGVGVPAIKSIRVDVQYLDEPMLTVHQTVSDVRGNFYQEKTVFLRCTVNSNPPARFIWKRGSDTLSHSQDNGVDIYEPLYTQGETKVLKLKNLRPQDYASYTCQVSVRNVCGIPDKAITFRLTNTTAPPALKLSVNETLVVNPGENVTVQCLLTGGDPLPQLQWSHGPGPLPLGALAQGGTLSIPSVQARDSGYYNCTATNNVGNPAKKTVNLLVRSMKNATFQITPDVIKESENIQLGQDLKLSCHVDAVPQEKVTYQWFKNGKPARMSKRLLVTRNDPELPAVTSSLELIDLHFSDYGTYLCMASFPGAPVPDLSVEVNISSETVPPTISVPKGRAVVTVREGSPAELQCEVRGKPRPPVLWSRVDKEAALLPSGLPLEETPDGKLRLERVSRDMSGTYRCQTARYNGFNVRPREAQVQLNVQFPPEVEPSSQDVRQALGRPVLLRCSLLRGSPQRIASAVWRFKGQLLPPPPVVPAAAEAPDHAELRLDAVTRDSSGSYECSVSNDVGSAACLFQVSAKAYSPEFYFDTPNPTRSHKLSKNYSYVLQWTQREPDAVDPVLNYRLSIRQLNQHNAVVKAIPVRRVEKGQLLEYILTDLRVPHSYEVRLTPYTTFGAGDMASRIIHYTEPINSPNLSDNTCHFEDEKICGYTQDLTDNFDWTRQNALTQNPKRSPNTGPPTDISGTPEGYYMFIETSRPRELGDRARLVSPLYNASAKFYCVSFFYHMYGKHIGSLNLLVRSRNKGALDTHAWSLSGNKGNVWQQAHVPISPSGPFQIIFEGVRGPGYLGDIAIDDVTLKKGECPRKQTDPNK
